± gives the standard deviation of the averaged measurements. The entries are a selection whose mix differs from that of the whole data set. Most entries show no effect beyond the scatter of the controls.

By UniProt entry, the sequences of proteins in these tests, tags left out. Where a name states a change or a piece, a line headed by the entry shows the natural chain unless it says otherwise.
UniProt P43378: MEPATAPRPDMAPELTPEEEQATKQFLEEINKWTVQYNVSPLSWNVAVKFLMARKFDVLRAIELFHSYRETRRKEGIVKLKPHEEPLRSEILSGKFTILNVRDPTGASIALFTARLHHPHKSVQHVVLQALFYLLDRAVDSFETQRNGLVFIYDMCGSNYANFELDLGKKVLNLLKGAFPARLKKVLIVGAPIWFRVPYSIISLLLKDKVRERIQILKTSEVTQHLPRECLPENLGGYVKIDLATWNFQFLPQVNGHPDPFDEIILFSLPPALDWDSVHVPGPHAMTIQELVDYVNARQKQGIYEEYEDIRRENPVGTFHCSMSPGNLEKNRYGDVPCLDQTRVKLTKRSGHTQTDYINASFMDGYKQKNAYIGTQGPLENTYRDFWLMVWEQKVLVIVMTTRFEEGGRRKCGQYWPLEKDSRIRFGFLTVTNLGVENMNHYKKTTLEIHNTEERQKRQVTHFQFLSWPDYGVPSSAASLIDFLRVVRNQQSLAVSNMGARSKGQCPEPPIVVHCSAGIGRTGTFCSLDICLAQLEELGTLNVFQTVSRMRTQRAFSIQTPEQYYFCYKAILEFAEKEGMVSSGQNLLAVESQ
UniProt P48736: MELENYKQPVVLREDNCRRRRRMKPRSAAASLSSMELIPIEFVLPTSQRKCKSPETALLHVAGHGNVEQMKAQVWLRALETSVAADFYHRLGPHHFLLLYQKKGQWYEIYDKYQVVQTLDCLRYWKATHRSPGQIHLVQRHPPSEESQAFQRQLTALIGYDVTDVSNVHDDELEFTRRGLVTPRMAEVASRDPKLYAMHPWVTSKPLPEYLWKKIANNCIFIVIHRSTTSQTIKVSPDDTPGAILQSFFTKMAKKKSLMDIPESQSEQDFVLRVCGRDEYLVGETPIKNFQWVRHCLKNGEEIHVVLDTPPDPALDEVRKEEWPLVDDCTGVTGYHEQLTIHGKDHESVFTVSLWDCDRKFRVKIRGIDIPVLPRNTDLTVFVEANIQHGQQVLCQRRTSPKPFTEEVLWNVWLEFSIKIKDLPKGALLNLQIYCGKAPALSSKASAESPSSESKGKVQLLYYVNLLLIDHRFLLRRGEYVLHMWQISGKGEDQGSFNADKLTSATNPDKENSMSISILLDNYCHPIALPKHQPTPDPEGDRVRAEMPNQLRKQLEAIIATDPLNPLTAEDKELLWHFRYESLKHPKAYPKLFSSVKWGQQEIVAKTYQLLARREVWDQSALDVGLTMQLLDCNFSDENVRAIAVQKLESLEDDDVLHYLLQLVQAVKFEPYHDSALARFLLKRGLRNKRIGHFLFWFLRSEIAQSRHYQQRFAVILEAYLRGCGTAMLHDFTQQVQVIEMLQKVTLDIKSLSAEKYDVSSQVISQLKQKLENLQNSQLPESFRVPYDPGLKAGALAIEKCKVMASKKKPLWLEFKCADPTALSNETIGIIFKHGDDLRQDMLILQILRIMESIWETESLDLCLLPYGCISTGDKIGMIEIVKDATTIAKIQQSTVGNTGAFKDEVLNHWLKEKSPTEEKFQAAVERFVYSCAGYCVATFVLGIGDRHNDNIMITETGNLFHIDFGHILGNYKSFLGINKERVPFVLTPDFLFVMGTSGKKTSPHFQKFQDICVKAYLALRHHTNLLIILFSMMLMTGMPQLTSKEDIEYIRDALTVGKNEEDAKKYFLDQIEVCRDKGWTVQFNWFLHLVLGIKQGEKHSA
UniProt P42575: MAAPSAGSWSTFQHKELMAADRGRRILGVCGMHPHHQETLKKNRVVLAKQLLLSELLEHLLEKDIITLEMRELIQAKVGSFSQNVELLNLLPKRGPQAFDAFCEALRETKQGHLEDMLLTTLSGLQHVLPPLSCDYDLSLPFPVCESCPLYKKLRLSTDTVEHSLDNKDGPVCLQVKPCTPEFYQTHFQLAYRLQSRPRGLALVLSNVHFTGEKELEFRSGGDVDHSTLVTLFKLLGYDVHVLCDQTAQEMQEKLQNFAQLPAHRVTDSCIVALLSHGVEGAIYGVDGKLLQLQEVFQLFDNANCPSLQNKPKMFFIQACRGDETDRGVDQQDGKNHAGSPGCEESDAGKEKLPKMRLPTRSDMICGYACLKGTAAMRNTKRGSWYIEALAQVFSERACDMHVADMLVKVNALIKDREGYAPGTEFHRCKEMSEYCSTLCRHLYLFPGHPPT
UniProt P52739: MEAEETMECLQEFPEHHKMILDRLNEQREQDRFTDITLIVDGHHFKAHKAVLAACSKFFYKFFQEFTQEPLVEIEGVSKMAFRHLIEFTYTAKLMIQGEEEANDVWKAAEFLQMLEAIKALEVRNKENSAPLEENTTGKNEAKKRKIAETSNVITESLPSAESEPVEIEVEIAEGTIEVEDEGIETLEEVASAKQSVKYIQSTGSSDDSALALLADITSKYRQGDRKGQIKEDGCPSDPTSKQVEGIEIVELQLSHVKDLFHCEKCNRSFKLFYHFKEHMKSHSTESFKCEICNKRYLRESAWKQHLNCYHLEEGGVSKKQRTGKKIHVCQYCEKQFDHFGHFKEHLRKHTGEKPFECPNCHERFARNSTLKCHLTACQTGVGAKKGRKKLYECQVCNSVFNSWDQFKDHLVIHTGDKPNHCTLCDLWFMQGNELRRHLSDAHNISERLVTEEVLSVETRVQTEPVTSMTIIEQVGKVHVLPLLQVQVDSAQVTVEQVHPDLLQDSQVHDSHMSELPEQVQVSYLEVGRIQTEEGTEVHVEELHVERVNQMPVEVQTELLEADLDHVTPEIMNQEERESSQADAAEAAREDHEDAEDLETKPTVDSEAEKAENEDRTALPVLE
UniProt P49336: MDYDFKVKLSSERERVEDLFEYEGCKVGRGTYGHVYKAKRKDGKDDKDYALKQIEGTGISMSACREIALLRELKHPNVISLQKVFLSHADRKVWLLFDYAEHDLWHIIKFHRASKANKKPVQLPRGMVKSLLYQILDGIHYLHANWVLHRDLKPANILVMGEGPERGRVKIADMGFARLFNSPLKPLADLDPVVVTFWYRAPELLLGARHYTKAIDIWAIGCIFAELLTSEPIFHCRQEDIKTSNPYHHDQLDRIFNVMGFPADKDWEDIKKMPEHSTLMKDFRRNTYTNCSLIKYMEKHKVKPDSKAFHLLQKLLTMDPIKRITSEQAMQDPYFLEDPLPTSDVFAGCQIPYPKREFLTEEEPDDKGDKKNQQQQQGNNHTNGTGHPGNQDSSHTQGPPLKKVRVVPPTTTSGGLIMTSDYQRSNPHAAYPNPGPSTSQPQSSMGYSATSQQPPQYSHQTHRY
UniProt P50502: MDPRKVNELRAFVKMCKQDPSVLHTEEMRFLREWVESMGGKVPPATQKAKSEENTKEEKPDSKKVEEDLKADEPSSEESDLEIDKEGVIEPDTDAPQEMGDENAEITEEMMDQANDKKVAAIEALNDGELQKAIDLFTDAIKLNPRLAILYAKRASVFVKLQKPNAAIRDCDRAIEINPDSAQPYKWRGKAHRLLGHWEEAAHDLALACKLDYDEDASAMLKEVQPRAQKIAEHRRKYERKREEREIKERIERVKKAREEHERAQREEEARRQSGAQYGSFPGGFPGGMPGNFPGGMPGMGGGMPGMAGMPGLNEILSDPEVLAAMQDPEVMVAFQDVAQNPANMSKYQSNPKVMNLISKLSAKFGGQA
UniProt P49711: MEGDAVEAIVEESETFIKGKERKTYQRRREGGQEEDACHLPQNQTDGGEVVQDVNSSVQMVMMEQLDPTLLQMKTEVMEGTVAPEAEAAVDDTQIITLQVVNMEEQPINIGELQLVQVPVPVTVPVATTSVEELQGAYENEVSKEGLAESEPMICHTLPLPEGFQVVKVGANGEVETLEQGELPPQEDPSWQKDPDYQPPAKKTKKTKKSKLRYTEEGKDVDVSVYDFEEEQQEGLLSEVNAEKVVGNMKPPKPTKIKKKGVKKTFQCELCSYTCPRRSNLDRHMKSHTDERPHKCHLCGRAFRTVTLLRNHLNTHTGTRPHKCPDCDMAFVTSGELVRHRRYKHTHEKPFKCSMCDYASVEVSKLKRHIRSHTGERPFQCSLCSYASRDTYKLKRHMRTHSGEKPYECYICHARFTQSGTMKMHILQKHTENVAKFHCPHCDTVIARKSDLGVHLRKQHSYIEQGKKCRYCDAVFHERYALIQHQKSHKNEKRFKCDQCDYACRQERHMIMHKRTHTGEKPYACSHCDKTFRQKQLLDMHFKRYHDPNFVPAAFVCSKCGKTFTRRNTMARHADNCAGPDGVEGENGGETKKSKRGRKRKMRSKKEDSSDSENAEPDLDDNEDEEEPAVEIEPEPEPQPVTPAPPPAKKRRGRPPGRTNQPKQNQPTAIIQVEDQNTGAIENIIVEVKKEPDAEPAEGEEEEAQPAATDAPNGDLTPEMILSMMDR
UniProt P40222: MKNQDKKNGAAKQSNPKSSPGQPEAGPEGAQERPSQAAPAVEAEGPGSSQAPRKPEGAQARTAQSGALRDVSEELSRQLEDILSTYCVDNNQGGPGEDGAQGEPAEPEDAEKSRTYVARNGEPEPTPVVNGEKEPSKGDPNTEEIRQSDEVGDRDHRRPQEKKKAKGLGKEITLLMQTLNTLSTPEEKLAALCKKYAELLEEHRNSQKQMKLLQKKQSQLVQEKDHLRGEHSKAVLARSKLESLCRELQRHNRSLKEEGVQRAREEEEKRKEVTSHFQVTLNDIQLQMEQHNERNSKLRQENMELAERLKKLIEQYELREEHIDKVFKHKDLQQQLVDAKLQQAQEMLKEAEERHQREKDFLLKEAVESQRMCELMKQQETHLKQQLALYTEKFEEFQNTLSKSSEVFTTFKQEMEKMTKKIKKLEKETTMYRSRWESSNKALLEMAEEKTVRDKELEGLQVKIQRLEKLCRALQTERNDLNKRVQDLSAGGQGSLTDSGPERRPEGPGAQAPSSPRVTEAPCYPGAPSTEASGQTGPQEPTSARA
UniProt P48454, whole entry: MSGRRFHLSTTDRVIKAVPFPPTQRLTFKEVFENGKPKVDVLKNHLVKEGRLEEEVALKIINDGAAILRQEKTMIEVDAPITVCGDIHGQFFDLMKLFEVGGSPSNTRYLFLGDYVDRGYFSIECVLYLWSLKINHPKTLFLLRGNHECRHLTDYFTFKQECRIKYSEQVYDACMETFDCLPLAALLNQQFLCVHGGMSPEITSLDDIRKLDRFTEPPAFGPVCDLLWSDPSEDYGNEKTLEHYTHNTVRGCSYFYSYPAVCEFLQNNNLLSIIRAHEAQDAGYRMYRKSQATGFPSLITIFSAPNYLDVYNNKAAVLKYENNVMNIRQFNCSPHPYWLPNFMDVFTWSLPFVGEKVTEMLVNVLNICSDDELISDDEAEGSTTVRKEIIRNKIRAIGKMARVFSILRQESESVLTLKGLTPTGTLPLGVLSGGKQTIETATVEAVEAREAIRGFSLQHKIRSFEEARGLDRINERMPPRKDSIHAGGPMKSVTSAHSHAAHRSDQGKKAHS
UniProt P48735: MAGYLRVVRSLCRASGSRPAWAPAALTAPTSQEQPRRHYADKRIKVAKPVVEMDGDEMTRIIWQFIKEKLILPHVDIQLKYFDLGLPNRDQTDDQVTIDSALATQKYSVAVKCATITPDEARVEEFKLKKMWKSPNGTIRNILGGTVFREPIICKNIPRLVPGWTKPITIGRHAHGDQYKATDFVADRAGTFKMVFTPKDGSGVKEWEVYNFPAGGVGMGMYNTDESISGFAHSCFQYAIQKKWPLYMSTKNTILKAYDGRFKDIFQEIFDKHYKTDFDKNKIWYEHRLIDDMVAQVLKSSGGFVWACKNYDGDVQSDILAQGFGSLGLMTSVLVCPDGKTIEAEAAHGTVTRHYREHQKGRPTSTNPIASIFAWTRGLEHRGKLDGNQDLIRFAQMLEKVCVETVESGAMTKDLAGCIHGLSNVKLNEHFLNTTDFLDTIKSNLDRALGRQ
UniProt P54920: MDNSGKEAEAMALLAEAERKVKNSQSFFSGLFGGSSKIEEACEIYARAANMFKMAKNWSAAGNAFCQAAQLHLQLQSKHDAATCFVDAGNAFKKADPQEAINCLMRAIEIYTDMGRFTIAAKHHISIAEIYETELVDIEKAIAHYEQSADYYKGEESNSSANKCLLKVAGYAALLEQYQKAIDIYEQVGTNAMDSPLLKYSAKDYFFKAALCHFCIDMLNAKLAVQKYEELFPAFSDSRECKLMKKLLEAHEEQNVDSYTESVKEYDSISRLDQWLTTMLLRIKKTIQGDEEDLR
UniProt P54727: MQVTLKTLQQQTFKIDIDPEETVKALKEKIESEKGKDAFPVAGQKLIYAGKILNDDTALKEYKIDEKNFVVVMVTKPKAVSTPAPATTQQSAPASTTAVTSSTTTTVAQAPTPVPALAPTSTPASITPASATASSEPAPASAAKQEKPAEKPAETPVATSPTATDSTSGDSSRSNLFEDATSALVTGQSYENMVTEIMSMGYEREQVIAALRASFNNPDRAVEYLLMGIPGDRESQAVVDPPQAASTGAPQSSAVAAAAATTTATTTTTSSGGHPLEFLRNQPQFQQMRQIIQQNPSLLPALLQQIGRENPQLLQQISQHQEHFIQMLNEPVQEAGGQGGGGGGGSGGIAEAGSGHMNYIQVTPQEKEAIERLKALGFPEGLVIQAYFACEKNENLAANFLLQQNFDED

Compound in one assay: Nc1ncnc2c1ncn2[C@@H]1O[C@H](COP(=O)(O)OP(=O)(O)NP(=O)(O)O)[C@@H](O)[C@H]1O [adenylyl imidodiphosphate]
Put plainly: NP40-soluble protein abundance relative to vehicle (solubility fold change) (ratio); higher = more soluble protein in presence of AMP-PNP. As to conditions: concentration: 0.1mM. In a few lines: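 Each value is a fold change relative to the detergent-processed vehicle, calculated per replicate from vsn-normalised intensities. Jurkat crude lysate received eight concentrations (0.1 to 10 mM) for 10 min at room temperature and 3 min at 37 °C, then was solubilised in 0.8% NP40 with benzonase (60 min, 4 °C). The ultracentrifuged supernatant was TMT-labelled and run by LC-MS/MS in three independent experiments.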
For SEC13 (UniProt P55735), the NP40-soluble protein abundance was found to be 1 ± 0.028.

For UniProt P41214, the NP40-soluble protein abundance is 0.993 ± 0.025.

On to MTOR (UniProt P42345), for which the NP40-soluble protein abundance is 0.997 ± 0.052.

For the target MTHFS (UniProt P49914), the NP40-soluble protein abundance was determined as 0.982 ± 0.018.

On to PTPN9 (UniProt P43378), for which the NP40-soluble protein abundance came to 1 ± 0.028.

Consider UniProt P52209-2, for which the NP40-soluble protein abundance was determined as 0.979 ± 0.011.

In the case of CENPF (UniProt P49454), the NP40-soluble protein abundance was 0.998 ± 0.027.

Regarding UQCRFS1 (UniProt P47985), the NP40-soluble protein abundance came to 1.02 ± 0.042.

In the case of GALK1 (UniProt P51570), the NP40-soluble protein abundance amounted to 1 ± 0.027.

With PIK3CG (UniProt P48736), the NP40-soluble protein abundance stood at 0.985 ± 0.037.

As for UniProt P48059-5, the NP40-soluble protein abundance came out at 1.009 ± 0.0091.

With UniProt P42568 and related entries, the NP40-soluble protein abundance stood at 0.999 ± 0.042.

Regarding CASP2 (UniProt P42575), the NP40-soluble protein abundance amounted to 1.02 ± 0.038.

UniProt P49321 and related entries: the NP40-soluble protein abundance stood at 0.937 ± 0.026.

Regarding UniProt P52739 and related entries, the NP40-soluble protein abundance turned out to be 1.01 ± 0.026.

POLR2K (UniProt P53803): the NP40-soluble protein abundance was determined as 1.04 ± 0.028.

As to UniProt P49336 and related entries, the NP40-soluble protein abundance amounted to 1 ± 0.047.

For the target YARS (UniProt P54577), the NP40-soluble protein abundance came to 0.985 ± 0.02.

Turning to CSK (UniProt P41240), the NP40-soluble protein abundance was 0.986 ± 0.037.

Regarding ST13 (UniProt P50502), the NP40-soluble protein abundance came to 0.938 ± 0.018.

On to PBX2 (UniProt P40425), for which the NP40-soluble protein abundance turned out to be 1.01 ± 0.04.

Take CTCF (UniProt P49711): the NP40-soluble protein abundance turned out to be 1.004 ± 0.0048.

Regarding TXLNA (UniProt P40222), the NP40-soluble protein abundance is 0.979 ± 0.085.

Consider RPL14 (UniProt P50914), for which the NP40-soluble protein abundance was found to be 1.07 ± 0.04.

Turning to UniProt P49588 and related entries, the NP40-soluble protein abundance amounted to 0.989 ± 0.013.

Take ACADSB (UniProt P45954): the NP40-soluble protein abundance was 1.02 ± 0.034.

On to GCLC (UniProt P48506), for which the NP40-soluble protein abundance worked out at 1.01 ± 0.011.

On to UniProt P48454 and related entries, for which the NP40-soluble protein abundance is 0.971 ± 0.017.

MTIF2 (UniProt P46199): the NP40-soluble protein abundance was 0.993 ± 0.018.

For IDH2 (UniProt P48735), the NP40-soluble protein abundance is 0.982 ± 0.021.

RPL5 (UniProt P46777): the NP40-soluble protein abundance was found to be 0.999 ± 0.039.

Turning to “UniProt P50570-4|P50570 and related entries”, the NP40-soluble protein abundance was 0.995 ± 0.017.

In the case of NAPA (UniProt P54920), the NP40-soluble protein abundance came out at 1.01 ± 0.036.

Regarding RAD23B (UniProt P54727), the NP40-soluble protein abundance was found to be 0.936 ± 0.03.

As for PIP4K2A (UniProt P48426), the NP40-soluble protein abundance amounted to 0.974 ± 0.015.

As to UniProt P49750-3|P49750-4, the NP40-soluble protein abundance worked out at 0.988 ± 0.015.

Turning to TRAPPC10 (UniProt P48553), the NP40-soluble protein abundance is 0.977 ± 0.02.

CTSC (UniProt P53634): the NP40-soluble protein abundance was 1.01 ± 0.031.

Staying with this assay, now noted: concentration: 0.5mM.
As to SEC13 (UniProt P55735), the NP40-soluble protein abundance amounted to 1 ± 0.061.

For the target UniProt P41214, the NP40-soluble protein abundance was 0.9888 ± 0.0083.

In the case of MTOR (UniProt P42345), the NP40-soluble protein abundance is 0.988 ± 0.062.

As for MTHFS (UniProt P49914), the NP40-soluble protein abundance came out at 0.977 ± 0.015.

For the target PTPN9 (UniProt P43378), the NP40-soluble protein abundance turned out to be 1 ± 0.049.

For the target UniProt P52209-2, the NP40-soluble protein abundance was found to be 1.01 ± 0.029.

For the target CENPF (UniProt P49454), the NP40-soluble protein abundance was found to be 1 ± 0.046.

For UQCRFS1 (UniProt P47985), the NP40-soluble protein abundance is 1.04 ± 0.059.

As for GALK1 (UniProt P51570), the NP40-soluble protein abundance was 0.999 ± 0.02.

For the target PIK3CG (UniProt P48736), the NP40-soluble protein abundance turned out to be 0.98 ± 0.062.

On to UniProt P48059-5, for which the NP40-soluble protein abundance worked out at 0.987 ± 0.047.

Take UniProt P42568 and related entries: the NP40-soluble protein abundance turned out to be 1.02 ± 0.041.

Regarding CASP2 (UniProt P42575), the NP40-soluble protein abundance turned out to be 0.985 ± 0.057.

In the case of UniProt P49321 and related entries, the NP40-soluble protein abundance amounted to 0.971 ± 0.04.

Regarding UniProt P52739 and related entries, the NP40-soluble protein abundance stood at 0.999 ± 0.029.

As for POLR2K (UniProt P53803), the NP40-soluble protein abundance came to 1.02 ± 0.026.

In the case of UniProt P49336 and related entries, the NP40-soluble protein abundance was determined as 1.02 ± 0.014.

With YARS (UniProt P54577), the NP40-soluble protein abundance worked out at 1.02 ± 0.046.

CSK (UniProt P41240): the NP40-soluble protein abundance was 0.984 ± 0.024.

Turning to ST13 (UniProt P50502), the NP40-soluble protein abundance was 0.947 ± 0.031.

In the case of PBX2 (UniProt P40425), the NP40-soluble protein abundance was 1.01 ± 0.024.

With CTCF (UniProt P49711), the NP40-soluble protein abundance is 1.02 ± 0.032.

For TXLNA (UniProt P40222), the NP40-soluble protein abundance stood at 1.04 ± 0.14.

Consider RPL14 (UniProt P50914), for which the NP40-soluble protein abundance turned out to be 0.988 ± 0.047.

On to UniProt P49588 and related entries, for which the NP40-soluble protein abundance came to 1.01 ± 0.012.

On to ACADSB (UniProt P45954), for which the NP40-soluble protein abundance turned out to be 1.01 ± 0.032.

Turning to GCLC (UniProt P48506), the NP40-soluble protein abundance amounted to 0.969 ± 0.059.

In the case of UniProt P48454 and related entries, the NP40-soluble protein abundance came to 0.99 ± 0.019.

For MTIF2 (UniProt P46199), the NP40-soluble protein abundance was 1.01 ± 0.016.

For IDH2 (UniProt P48735), the NP40-soluble protein abundance came out at 0.984 ± 0.013.

For RPL5 (UniProt P46777), the NP40-soluble protein abundance came to 1.02 ± 0.016.

Consider “UniProt P50570-4|P50570 and related entries”, for which the NP40-soluble protein abundance was 0.998 ± 0.048.

On to NAPA (UniProt P54920), for which the NP40-soluble protein abundance amounted to 1.02 ± 0.026.

RAD23B (UniProt P54727): the NP40-soluble protein abundance was 0.938 ± 0.057.

For the target PIP4K2A (UniProt P48426), the NP40-soluble protein abundance turned out to be 0.969 ± 0.052.

UniProt P49750-3|P49750-4: the NP40-soluble protein abundance is 1.03 ± 0.04.

With TRAPPC10 (UniProt P48553), the NP40-soluble protein abundance was determined as 0.979 ± 0.03.

For the target CTSC (UniProt P53634), the NP40-soluble protein abundance worked out at 1.01 ± 0.062.
